{
  "source": "paper PMC5792436",
  "key": {"[1]": {"test_system": "Q5 High-Fidelity DNA polymerase", "experiment": "EMSA", "conditions": "no Mg2+; 10 mM Tris-HCl pH 7.9, 50 mM KCl, 1 mM EDTA, 5% glycerol, 1 mM DTT, 25 ug/ml BSA; no MgCl2, no poly(dI-dC); 20 min at room temperature; 6% PAGE in 0.5X TBE; commercial protein; protein details: Sso7d fusion; label: 5' biotin; single-stranded DNA"}, "[2]": {"test_system": "PrimeSTAR GXL DNA polymerase", "experiment": "EMSA", "conditions": "no Mg2+; 10 mM Tris-HCl pH 7.9, 50 mM KCl, 1 mM EDTA, 5% glycerol, 1 mM DTT, 25 ug/ml BSA; no MgCl2, no poly(dI-dC); 20 min at room temperature; 6% PAGE in 0.5X TBE; commercial protein; label: 5' biotin; single-stranded DNA"}},
  "note": "The exact form of at least one protein or probe is not confirmed.",
  "data": [
    {"sequence": "TACCGAGCTCTTACGCGTGCCTCTGACTTGCCTCAGAGC [Bio-Olig2.5]", "values": [
      {"measurement": "binding result", "setting": "[1]", "result": "binds"},
      {"measurement": "binding result", "setting": "[2]", "result": "binds"}
    ]}
  ]
}
